# Laboratory results reported in PubChem BioAssay AID1487 (National Center for Advancing Translational Sciences (NCATS), 2009).
# Values joined by “and” are separate entries in the source; they are usually repeats but may differ in a detail not shown here. Equal entries are not always repeated. Some of the results follow. Shown are side measurements of this screen, not its main read-out; they come without a call. Compounds called inactive in the main read-out are mostly missing here. The note in brackets gives the kind of curve behind each potency; many fits are weak.
# Assay: qHTS Assay for Modulators of Lamin A Splicing
# Settings: HeLa LMNA splicing GFP/RFP minigene ratio, 48 h
# Outline: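 S3 HeLa cells stably expressing lamin A-EGFP splicing minigene plus DsRed2, 600 cells/well, 48 h compound exposure at 37C. Laser-scanning cytometry; analysed as GFP (500-530 nm)/RFP (575-640 nm) total intensity ratio; 0.5% DMSO vehicle.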
# [1] = measured here: GFP splicing reporter channel
# [2] = measured here: RFP viability control channel
SMILES,AC50 [1],AC50 [2]
Cc1ncsc1CCCl,"20 µM [falling, single point]","0.0224 µM [falling, full curve, poor fit]"
C=CC1CN2CCC1CC2[C@@H](OC(=O)c1ccc(OC)cc1)c1ccnc2ccccc12 (stereo not given in full),"0.316 µM [rising, partial curve, poor fit]","1.12 µM [rising, partial curve]"
O=C(c1cccn2c(=O)c3cc(Cl)ccc3nc12)N1CCC2(CC1)OCCO2,"0.0562 µM [rising, full curve, poor fit]",–
C[C@@H](C(=O)O)c1ccc(-c2ccccc2)c(F)c1,"3.16 µM [falling, single point]","3.16 µM [falling, single point]"
C[C@H]1CCC[C@@H](O)CCC/C=C/c2cc(O)cc(O)c2C(=O)O1,"3.98 µM [falling, partial curve, poor fit]","3.98 µM [rising, full curve]"
CN1CCN(Cc2ccc(N)cc2)CC1,"11.2 µM [falling, partial curve]","14.1 µM [falling, partial curve]"
CCOc1ccc(/C=C/C(=O)C(C(N)=O)=C2SCCS2)cc1,–,"7.08 µM [rising, partial curve]"
Nc1cncc(C(=O)O)c1,–,"1.58 µM [falling, full curve, poor fit]"
CCOC(C(=O)OCC(O)CN(CC)CC)(c1ccccc1)c1ccccc1 (stereo not given),–,"0.0355 µM [falling, full curve, poor fit]"
Cc1ccc(S(=O)(=O)N2CCC(=O)N(CCOC(=O)Nc3cccc(Cl)c3)CC2)cc1,"15.8 µM [rising, single point]","25.1 µM [rising, single point]"
CCCCCCC(C)(C)c1ccc([C@@H]2C[C@H](O)CC[C@H]2CCCO)c(O)c1,"28.2 µM [falling, partial curve, poor fit]","20 µM [falling, partial curve]"
C#CCN1C(=O)C2(C(C#N)=C(N)OC(C)=C2C(=O)OCc2ccccc2)c2ccccc21 (stereo not given),–,"3.98 µM [rising, full curve]"
c1ccc(-c2[nH]c(-c3ccccc3)[n+](CC3CO3)c2-c2ccccc2)cc1 (stereo not given),–,"10 µM [rising, partial curve]"
COc1cc2c(cc1O)[C@H]1Cc3ccc(OC)c(O)c3CN1CC2,"10 µM [falling, single point]","10 µM [falling, single point]"
CCc1cc(=O)[nH]c(SCCCF)n1,–,"0.00282 µM [falling, full curve, poor fit]"
FC(F)(F)c1ccc2c(c1)nnn2C1CCN(Cc2nnnn2Cc2ccccc2)CC1,–,"28.2 µM [rising, single point]"
CC(=O)[C@H]1CCC2C3CC[C@H]4C[C@H](O)CC[C@]4(C)C3CC[C@@]21C (stereo not given in full),"0.316 µM [rising, full curve, poor fit]","22.4 µM [falling, partial curve]"
CCCCCCCCCCCCCCCCCC[N+](C)(C)CCC[Si](OC)(OC)OC,"1.12 µM [falling, partial curve, poor fit]","35.5 µM [falling, single point]"
Clc1ccc(COC(Cn2ccnc2)c2ccc(Cl)cc2Cl)cc1 (stereo not given),"11.2 µM [rising, partial curve, poor fit] and 17.8 µM [falling, partial curve]","12.6 µM [rising, partial curve] and 15.8 µM [falling, partial curve]"
COc1ccc2c(c1OC)C(=O)OC2C1c2cc3c(cc2CCN1C)OCO3 (stereo not given),–,"0.000891 µM [falling, full curve, poor fit]"
CN(C)C=C1C(=O)N(C2CCCCC2)C(=O)N(C2CCCCC2)C1=O,"25.1 µM [falling, single point]","31.6 µM [falling, single point]"
CC1OC(OC2C(O)CC(OC3C(O)CC(OC4CCC5(C)C(CCC6C5CCC5(C)C(C7=CC(=O)OC7)CCC65O)C4)OC3C)OC2C)CC(O)C1O (stereo not given),"1 µM [falling, full curve, poor fit]","0.708 µM [rising, full curve]"
c1ccc2c(CN3CCCCCCC3)c[nH]c2c1,"35.5 µM [falling, single point]","3.16 µM [falling, partial curve]"
CCCN1CCC[C@@H]2Cc3n[nH]cc3C[C@H]21,"6.31 µM [falling, partial curve, poor fit]",–
CCOP(=O)(OCC)c1nc(-c2ccc(C)cc2)oc1NCc1ccccc1,"15.8 µM [rising, single point]","31.6 µM [rising, single point]"
Cc1ccc(CC(=O)N2CCN(Cc3ccccc3)CC2)cc1,–,"0.0708 µM [rising, full curve, poor fit]"

SMILES,AC50 [1],AC50 [2]
O=C(O)c1cc(O)c(O)c(O)c1,–,"0.282 µM [rising, full curve, poor fit]"
CCC(C#N)(CC)P(=S)(c1ccccc1)c1ccccc1,–,"5.01 µM [rising, partial curve]"
O=C(c1cc(-c2ccc(Cl)cc2)n(-c2ccc(Cl)cc2Cl)n1)N1CCOCC1,–,"11.2 µM [falling, single point]"
Cc1ccc(-c2cn3c(=S)[nH]nc3s2)cc1,"4.47 µM [rising, single point]","31.6 µM [falling, single point]"
COC(=O)c1ccc(NC(=O)CSc2nc3ccc(N4C(=O)C5C6C=CC(C6)C5C4=O)cc3s2)cc1 (stereo not given),–,"35.5 µM [rising, single point]"
CCCCC(CC)COC(=O)c1ccccc1O (stereo not given),"10 µM [rising, partial curve, poor fit]","10 µM [rising, partial curve, poor fit]"
C[C@H]1CCCC(=O)CCCCCc2cc(O)cc(O)c2C(=O)O1,"10 µM [falling, partial curve, poor fit]","28.2 µM [rising, single point]"
CCN1CCN(C(=O)Cc2c(C)n(C(=O)c3ccc(Cl)cc3)c3ccc(OC)cc23)CC1,–,"0.316 µM [rising, partial curve]"
CN1CCN(C(=O)Cc2nc3ccccc3[nH]2)CC1,"31.6 µM [rising, single point]","35.5 µM [rising, single point]"
Cc1nc(-c2ccc(-c3ccc(C(=O)N4CCc5cc6c(cc54)C4(CCN(C)CC4)CO6)cc3)c(C)c2)no1,"11.2 µM [falling, partial curve]","17.8 µM [falling, partial curve]"
CC(=NCc1ccc(F)cc1)c1c(O)n(C)c(=O)n(C)c1=O,"12.6 µM [rising, single point]","12.6 µM [rising, partial curve]"
Cc1ccc(C(C)C)c(OCC(=O)N2CCN(Cc3nc4cc([N+](=O)[O-])ccc4n3C)CC2)c1,"8.91 µM [rising, partial curve]","17.8 µM [rising, partial curve]"
Cc1c(C(=O)N2CCC3(CC2)OCCO3)sc2ncnc(N(C)c3ccccc3)c12,"8.91 µM [rising, partial curve, poor fit]","10 µM [rising, partial curve, poor fit]"
c1ccc2[nH]c(CCNC3CCCCC3)nc2c1,–,"35.5 µM [rising, single point]"
COc1ccc(C2=NCC(=O)N(CC(=O)NCc3ccco3)c3sc4c(c32)CCCC4)cc1,–,"14.1 µM [rising, single point]"
CC(C)c1cccc(C(C)C)c1O,"1 µM [falling, full curve]","1.12 µM [falling, full curve, poor fit]"
CCC(C)NC(=O)c1c(N)n(CCCOC)c2nc3ccccc3nc12 (stereo not given),"1.12 µM [rising, partial curve, poor fit]","0.02 µM [rising, full curve, poor fit]"
CCOc1ccc(C(NC(=O)c2cc(OC)c(OC)c(OC)c2)c2cc(Cl)c3cccnc3c2O)cc1 (stereo not given),"5.01 µM [rising, partial curve]","5.62 µM [rising, partial curve]"
Cc1ccc(O)c([C@H](CCN(C(C)C)C(C)C)c2ccccc2)c1,"28.2 µM [falling, single point]","35.5 µM [falling, single point]"
Cc1nn(Cc2ccccc2)c(C)c1C(=O)OCC(=O)Nc1ccccc1SCC#N,"12.6 µM [rising, single point]",–
O=P(OC1CCCCC1)(OC1CCCCC1)C(O)c1c(Cl)cccc1Cl (stereo not given),"12.6 µM [rising, single point]","15.8 µM [rising, single point]"
C=COCCn1c(C)c(C(=O)OCC)c2cc(O)ccc21,–,"35.5 µM [rising, single point]"
Cc1occc1C(=O)Nc1nnc(C(F)(F)F)s1,–,"11.2 µM [rising, partial curve]"
O=C(O)CC[N+](=O)[O-],"5.62 µM [falling, partial curve, poor fit]","6.31 µM [falling, partial curve, poor fit]"
CSc1ncc(CN2CCCC(C(=O)c3cccc(Cl)c3)C2)cn1 (stereo not given),–,"10 µM [falling, partial curve, poor fit]"

# Rewritten with tabs: part of the list above.
SMILES	AC50 [1]	AC50 [2]
CCC(C#N)(CC)P(=S)(c1ccccc1)c1ccccc1	–	5.01 µM [rising, partial curve]
O=C(c1cc(-c2ccc(Cl)cc2)n(-c2ccc(Cl)cc2Cl)n1)N1CCOCC1	–	11.2 µM [falling, single point]
Cc1ccc(-c2cn3c(=S)[nH]nc3s2)cc1	4.47 µM [rising, single point]	31.6 µM [falling, single point]
